Test results: patent publication US12419871B2, “Biomolecules involved in Alzheimer's disease” (ELECTROPHORETICS LIMITED, priority 2015, dated 2025)

Assay: TMTcalibrator quantification of regulated proteins in AD CSF versus control
Set-up: species or system human
Conditions: CSF of AD patient versus control; non-modified peptides of each protein summed for three control and three AD cases

B1: O94985 (protein, UniProt O94985 1-981, looked up)
chain: MLRRPAPALAPAARLLLAGLLCGGGVWAARVNKHKPWLEPTYHGIVTENDNTVLLDPPLIALDKDAPLRFAESFEVTVTKEGEICGFKIHGQNVPFDAVVVDKSTGEGVIRSKEKLDCELQKDYSFTIQAYDCGKGPDGTNVKKSHKATVHIQVNDVNEYAPVFKEKSYKATVIEGKQYDSILRVEAVDADCSPQFSQICSYEIITPDVPFTVDKDGYIKNTEKLNYGKEHQYKLTVTAYDCGKKRATEDVLVKISIKPTCTPGWQGWNNRIEYEPGTGALAVFPNIHLETCDEPVASVQATVELETSHIGKGCDRDTYSEKSLHRLCGAAAGTAELLPSPSGSLNWTMGLPTDNGHDSDQVFEFNGTQAVRIPDGVVSVSPKEPFTISVWMRHGPFGRKKETILCSSDKTDMNRHHYSLYVHGCRLIFLFRQDPSEEKKYRPAEFHWKLNQVCDEEWHHYVLNVEFPSVTLYVDGTSHEPFSVTEDYPLHPSKIETQLVVGACWQEFSGVENDNETEPVTVASAGGDLHMTQFFRGNLAGLTLRSGKLADKKVIDCLYTCKEGLDLQVLEDSGRGVQIQAHPSQLVLTLEGEDLGELDKAMQHISYLNSRQFPTPGIRRLKITSTIKCFNEATCISVPPVDGYVMVLQPEEPKISLSGVHHFARAASEFESSEGVFLFPELRIISTITREVEPEGDGAEDPTVQESLVSEEIVHDLDTCEVTVEGEELNHEQESLEVDMARLQQKGIEVSSSELGMTFTGVDTMASYEEVLHLLRYRNWHARSLLDRKFKLICSELNGRYISNEFKVEVNVIHTANPMEHANHMAAQPQFVHPEHRSFVDLSGHNLANPHPFAVVPSTATVVIVVCVSFLVFMIILGVFRIRAAHRRTMRDQDTGKENEMDWDDSALTITVNPMETYEDQHSSEEEEEEEEEEESEDGEEEDDITSAESESSEEEEGEQGDPQNATRQQQLEWDDSTLSY
modifications: full-length
**Q.** With B1 as the molecule, how does the “Log2 AD/Control” value read?
**A.** 0.75

B2: Q16566 (protein, UniProt Q16566 1-473, looked up)
chain: MLKVTVPSCSASSCSSVTASAAPGTASLVPDYWIDGSNRDALSDFFEVESELGRGATSIVYRCKQKGTQKPYALKVLKKTVDKKIVRTEIGVLLRLSHPNIIKLKEIFETPTEISLVLELVTGGELFDRIVEKGYYSERDAADAVKQILEAVAYLHENGIVHRDLKPENLLYATPAPDAPLKIADFGLSKIVEHQVLMKTVCGTPGYCAPEILRGCAYGPEVDMWSVGIITYILLCGFEPFYDERGDQFMFRRILNCEYYFISPWWDEVSLNAKDLVRKLIVLDPKKRLTTFQALQHPWVTGKAANFVHMDTAQKKLQEFNARRKLKAAVKAVVASSRLGSASSSHGSIQESHKASRDPSPIQDGNEDMKAIPEGEKIQGDGAQAAVKGAQAELMKVQALEKVKGADINAEEAPKMVPKAVEDGIKVADLELEEGLAEEKLKTVEEAAAPREGQGSSAVGFEVPQQDVILPEY
modifications: full-length
**Q.** With B2 as the molecule, how does the “Log2 AD/Control” value read?
**A.** 0.85

B3: P07384 (protein, UniProt P07384 1-714, looked up)
chain: MSEEIITPVYCTGVSAQVQKQRARELGLGRHENAIKYLGQDYEQLRVRCLQSGTLFRDEAFPPVPQSLGYKDLGPNSSKTYGIKWKRPTELLSNPQFIVDGATRTDICQGALGDCWLLAAIASLTLNDTLLHRVVPHGQSFQNGYAGIFHFQLWQFGEWVDVVVDDLLPIKDGKLVFVHSAEGNEFWSALLEKAYAKVNGSYEALSGGSTSEGFEDFTGGVTEWYELRKAPSDLYQIILKALERGSLLGCSIDISSVLDMEAITFKKLVKGHAYSVTGAKQVNYRGQVVSLIRMRNPWGEVEWTGAWSDSSSEWNNVDPYERDQLRVKMEDGEFWMSFRDFMREFTRLEICNLTPDALKSRTIRKWNTTLYEGTWRRGSTAGGCRNYPATFWVNPQFKIRLDETDDPDDYGDRESGCSFVLALMQKHRRRERRFGRDMETIGFAVYEVPPELVGQPAVHLKRDFFLANASRARSEQFINLREVSTRFRLPPGEYVVVPSTFEPNKEGDFVLRFFSEKSAGTVELDDQIQANLPDEQVLSEEEIDENFKALFRQLAGEDMEISVKELRTILNRIISKHKDLRTKGFSLESCRSMVNLMDRDGNGKLGLVEFNILWNRIRNYLSIFRKFDLDKSGSMSAYEMRMAIESAGFKLNKKLYELIITRYSEPDLAVDFDNFVCCLVRLETMFRFFKTLDTDLDGVVTFDLFKWLQLTMFA
modifications: full-length
**Q.** Which “Log2 AD/Control” value does the source give for B3 here?
**A.** 1.06

B4: Q9P1Y5 (protein, UniProt Q9P1Y5 1-1249, looked up)
chain: MVEAAPPGPGPLRRTFLVPEIKSLDQYDFSRAKAAASLAWVLRAAFGGAEHVPPELWEPFYTDQYAQEHVKPPVTRLLLSAELYCRAWRQALPQLETPPNPSALLALLARRGTVPALPERPVREADLRHQPILMGAHLAVIDALMAAFAFEWTKTLPGPLALTSLEHKLLFWVDTTVRRLQEKTEQEAAQRASPAAPADGAAPAQPSIRYRKDRVVARRAPCFPTVTSLQDLASGAALAATIHCYCPQLLRLEEVCLKDPMSVADSLYNLQLVQDFCASRLPRGCPLSLEDLLYVPPPLKVNLVVMLAELFMCFEVLKPDFVQVKDLPDGHAASPRGTEASPPQNNSGSSSPVFTFRHPLLSSGGPQSPLRGSTGSLKSSPSMSHMEALGKAWNRQLSRPLSQAVSFSTPFGLDSDVDVVMGDPVLLRSVSSDSLGPPRPAPARTPTQPPPEPGDLPTIEEALQIIHSAEPRLLPDGAADGSFYLHSPEGPSKPSLASPYLPEGTSKPLSDRPTKAPVYMPHPETPSKPSPCLVGEASKPPAPSEGSPKAVASSPAATNSEVKMTSFAERKKQLVKAEAEAGAGSPTSTPAPPEALSSEMSELSARLEEKRRAIEAQKRRIEAIFAKHRQRLGKSAFLQVQPREASGEAEAEAEEADSGPVPGGERPAGEGQGEPTSRPKAVTFSPDLGPVPHEGLGEYNRAVSKLSAALSSLQRDMQRLTDQQQRLLAPPEAPGSAPPPAAWVIPGPTTGPKAASPSPARRVPATRRSPGPGPSQSPRSPKHTRPAELRLAPLTRVLTPPHDVDSLPHLRKFSPSQVPVQTRSSILLAEETPPEEPAARPGLIEIPLGSLADPAAEDEGDGSPAGAEDSLEEEASSEGEPRVGLGFFYKDEDKPEDEMAQKRASLLERQQRRAEEARRRKQWQEVEKEQRREEAARLAQEEAPGPAPLVSAVPMATPAPAARAPAEEEVGPRKGDFTRQEYERRAQLKLMDDLDKVLRPRAAGSGGPGRGGRRATRPRSGCCDDSALARSPARGLLGSRLSKIYSQSTLSLSTVANEAHNNLGVKRPTSRAPSPSGLMSPSRLPGSRERDWENGSNASSPASVPEYTGPRLYKEPSAKSNKFIIHNALSHCCLAGKVNEPQKNRILEEIEKSKANHFLILFRDSSCQFRALYTLSGETEELSRLAGYGPRTVTPAMVEGIYKYNSDRKRFTQIPAKTMSMSVDAFTIQGHLWQGKKPTTPKKGGGTPK
modifications: full-length
**Q.** For B4, which “Log2 AD/Control” value is on record?
**A.** 0.91

B5: O43852 (protein, UniProt O43852 1-315, looked up)
chain: MDLRQFLMCLSLCTAFALSKPTEKKDRVHHEPQLSDKVHNDAQSFDYDHDAFLGAEEAKTFDQLTPEESKERLGKIVSKIDGDKDGFVTVDELKDWIKFAQKRWIYEDVERQWKGHDLNEDGLVSWEEYKNATYGYVLDDPDPDDGFNYKQMMVRDERRFKMADKDGDLIATKEEFTAFLHPEEYDYMKDIVVQETMEDIDKNADGFIDLEEYIGDMYSHDGNTDEPEWVKTEREQFVEFRDKNRDGKMDKEETKDWILPSDYDHAEAEARHLVYESDQNKDGKLTKEEIVDKYDLFVGSQATDFGEALVRHDEF
modifications: full-length
**Q.** With B5 as the molecule, how does the “Log2 AD/Control” value read?
**A.** 1.15

B6: Q9BQT9 (protein, UniProt Q9BQT9 1-956, looked up)
chain: MTLLLLPLLLASLLASCSCNKANKHKPWIEAEYQGIVMENDNTVLLNPPLFALDKDAPLRYAGEICGFRLHGSGVPFEAVILDKATGEGLIRAKEPVDCEAQKEHTFTIQAYDCGEGPDGANTKKSHKATVHVRVNDVNEFAPVFVERLYRAAVTEGKLYDRILRVEAIDGDCSPQYSQICYYEILTPNTPFLIDNDGNIENTEKLQYSGERLYKFTVTAYDCGKKRAADDAEVEIQVKPTCKPSWQGWNKRIEYAPGAGSLALFPGIRLETCDEPLWNIQATIELQTSHVAKGCDRDNYSERALRKLCGAATGEVDLLPMPGPNANWTAGLSVHYSQDSSLIYWFNGTQAVQVPLGGPSGLGSGPQDSLSDHFTLSFWMKHGVTPNKGKKEEETIVCNTVQNEDGFSHYSLTVHGCRIAFLYWPLLESARPVKFLWKLEQVCDDEWHHYALNLEFPTVTLYTDGISFDPALIHDNGLIHPPRREPALMIGACWTEEKNKEKEKGDNSTDTTQGDPLSIHHYFHGYLAGFSVRSGRLESREVIECLYACREGLDYRDFESLGKGMKVHVNPSQSLLTLEGDDVETFNHALQHVAYMNTLRFATPGVRPLRLTTAVKCFSEESCVSIPEVEGYVVVLQPDAPQILLSGTAHFARPAVDFEGTNGVPLFPDLQITCSISHQVEAKKDESWQGTVTDTRMSDEIVHNLDGCEISLVGDDLDPERESLLLDTTSLQQRGLELTNTSAYLTIAGVESITVYEEILRQARYRLRHGAALYTRKFRLSCSEMNGRYSSNEFIVEVNVLHSMNRVAHPSHVLSSQQFLHRGHQPPPEMAGHSLASSHRNSMIPSAATLIIVVCVGFLVLMVVLGLVRIHSLHRRVSGAGGPPGASSDPKDPDLFWDDSALTIIVNPMESYQNRQSCVTGAVGGQQEDEDSSDSEVADSPSSDERRIIETPPHRY
modifications: full-length
**Q.** With B6 as the molecule, how does the “Log2 AD/Control” value read?
**A.** 0.76
